Assay results as given in paper PMC6593612.

Molecular target: T1, Flag-tagged D182A 48 kDa PTPN2 substrate-trapping mutant (human) (UniProt P17706)
T1 sequence: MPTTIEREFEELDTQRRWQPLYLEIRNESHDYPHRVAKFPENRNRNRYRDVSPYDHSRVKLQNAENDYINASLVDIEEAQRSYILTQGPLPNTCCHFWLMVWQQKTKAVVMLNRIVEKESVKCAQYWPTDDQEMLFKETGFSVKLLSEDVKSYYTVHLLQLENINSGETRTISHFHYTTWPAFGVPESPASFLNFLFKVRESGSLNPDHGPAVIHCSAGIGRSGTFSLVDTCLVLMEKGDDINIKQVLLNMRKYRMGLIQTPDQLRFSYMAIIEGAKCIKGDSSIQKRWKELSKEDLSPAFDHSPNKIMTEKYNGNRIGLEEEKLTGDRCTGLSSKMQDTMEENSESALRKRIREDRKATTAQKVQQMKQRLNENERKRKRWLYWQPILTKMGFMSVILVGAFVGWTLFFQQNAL
Assay: co-IP; Flag-tagged D182A PTPN2 precipitated with anti-FLAG antibodies coupled to agarose beads from whole cell lysates of transfected HEK-PAFR; cells stimulated with PAF (100 nM) or vehicle for indicated times; blots with anti-Akt, anti-PKD, anti-Flag

binding | Substance
binds | protein kinase D (human (endogenous in HEK-293))
binds | Akt (human (endogenous in HEK-293))

Results are given in words; binding and its absence hold for the method and conditions named. Binding seen in cells or lysates may run through a third protein. A result given as binding can be weak or reduced; the word gives no strength. Where a sequence is shown, tags or fusion partners need not be part of it.
